# Assays:
# phosphorylation of c-RAF = assay: Western blot of phosphorylated c-RAF in PK03 cells; type: cell-based, mouse; conditions: PK03 cells, 3, 10 or 30μM, 24 hours
# [1] = system: phosphorylation of MEK1/2 and ERK1/2; assay: Western blot of phosphorylated MEK1/2 and ERK1/2 in PK03 cells; type: cell-based, mouse; conditions: PK03 cells, 3, 10 or 30μM, 24 hours
# phosphorylated ERK1/2 = assay: Immunohistochemical staining of phosphorylated ERK1/2 in PK03 tumors; conditions: 10mg/kg, n = 3 mice/group, vs PK03 control
structure (smiles),measurement,setting,value
"O=C(NC12CC3CC(CC(C3)C1)C2)N[C@H]1CC[C@H](Oc2ccc(C(=O)O)cc2)CC1 [t-AUCB, trans/-4-[4-(3-adamantan-1-yl-ureido)-cyclohexyloxy]-benzoic acid]",inhibition of phosphorylation of c-RAF,phosphorylation of c-RAF,but not by sorafenib or t-AUCB
same,inhibition of phosphorylation of MEK1/2 and ERK1/2,[1],but not by t-AUCB
same,staining intensity of phosphorylated ERK1/2,phosphorylated ERK1/2,but not t-AUCB treated tumors
